In the supplement of paper PMC8426693:
The other results are listed elsewhere or left out.

Experiments:
Assay in all cases: NMR binding call after quantification (hit when 2 of 3 NMR criteria are met) (binary (1 = binding, 0 = not binding)); higher = binding
Details in all cases: RNA concentration 10 µM; fragment concentration 200 µM; 293 K
SARS-CoV-2 5'-UTR RNA = test system: SARS-CoV-2 5'-UTR RNA
SARS-CoV-2 5_SL1 RNA = test system: SARS-CoV-2 5_SL1 RNA
SARS-CoV-2 5_SL1234 RNA = test system: SARS-CoV-2 5_SL1234 RNA
SARS-CoV-2 5_SL2+3 RNA = test system: SARS-CoV-2 5_SL2+3 RNA
SARS-CoV-2 5_SL4 RNA = test system: SARS-CoV-2 5_SL4 RNA
SARS-CoV-2 5_SL5 RNA = test system: SARS-CoV-2 5_SL5 RNA
SARS-CoV-2 5_SL5a RNA = test system: SARS-CoV-2 5_SL5a RNA
SARS-CoV-2 5_SL5b+c RNA = test system: SARS-CoV-2 5_SL5b+c RNA
SARS-CoV-2 5_SL5stem RNA = test system: SARS-CoV-2 5_SL5stem RNA
SARS-CoV-2 5_SL6 RNA = test system: SARS-CoV-2 5_SL6 RNA

Measured: NMR binding call

c1coc(CNc2nc3ccccc3[nH]2)c1
1: SARS-CoV-2 5'-UTR RNA
0: all other assays above

COCc1cc(C(N)=O)no1
0: all assays above

CNC(=O)c1ccc(S(N)(=O)=O)cc1
0: all assays above

CC(O)CNCc1c(Cl)cccc1Cl (stereo not given)
0: all assays above

CCCC(=O)Nc1cccnc1Cl
0: all assays above

CC1CN(C)CCC1Nc1cnn(C)c1 (stereo not given)
0: all assays above

N#CCC(=O)Nc1ccc(Cl)cc1
0: all assays above

Cc1n[nH]c(C)c1-c1ccccc1N
0: all assays above

COc1ccc(C(=O)C2CCNCC2)cc1
0: all assays above

Cc1ncsc1C(=O)N1CCNC(=O)C1
0: all assays above

CC(=O)Nc1ccc(OC(=O)N2CCCC2)cc1
0: all assays above

COc1ccc(Cl)cc1C(=O)NCC(C)C
0: all assays above

CC(=O)N1CCC(NCCc2ccccc2)CC1
0: all assays above

CNC(C)c1ccc(F)cc1.Cl (stereo not given)
0: all assays above

CC1CCN(C(=O)c2cc3ccccc3o2)CC1
0: all assays above

Fc1ccccc1NCc1cc[nH]n1
0: all assays above

Cc1ccsc1CNC(C)(C)CO
0: all assays above

Cc1noc(CC(N)c2ccccc2)n1.Cl (stereo not given)
0: all assays above

CC1CCOC1C(=O)Nc1cnns1 (stereo not given)
0: all assays above

Cc1csc(NCC2CCCO2)n1 (stereo not given)
0: all assays above

N#CCC(=O)NC1CCCCC1
0: all assays above

CC(C)(C)CC(=O)Nc1ccc(F)cc1F
0: all assays above

An excerpt from above in order of number of heavy atoms, high to low.
CC1CN(C)CCC1Nc1cnn(C)c1 (stereo not given)
0: all assays above

Fc1ccccc1NCc1cc[nH]n1
0: all assays above

Cc1csc(NCC2CCCO2)n1 (stereo not given)
0: all assays above

(further entries)

Cc1ccc(CC(=O)NCC2CCCO2)cc1 (stereo not given)
0: all assays above

CC(C)C(=O)NCC1CCCNC1 (stereo not given)
0: all assays above

CN(C)Cc1ccc(C(=O)O)o1.Cl
0: all assays above

O=C(NCCc1ccccc1)NC1CCCCC1
0: all assays above

CC1CCCCN1CCN (stereo not given)
0: all assays above

O=C(NCCc1ccc(F)cc1)c1ccco1
0: all assays above

O=C(Cc1ccc(F)cc1)NC1CCCCC1
0: all assays above

Cc1ccc(CC(=O)Nc2nccs2)cc1
0: all assays above

Entries shown so far with sulfur, in the order listed:
CNC(=O)c1ccc(S(N)(=O)=O)cc1
0: all assays above

Cc1ncsc1C(=O)N1CCNC(=O)C1
0: all assays above

Cc1ccsc1CNC(C)(C)CO
0: all assays above

CC1CCOC1C(=O)Nc1cnns1 (stereo not given)
0: all assays above

Cc1csc(NCC2CCCO2)n1 (stereo not given)
0: all assays above

Cc1ccc(CC(=O)Nc2nccs2)cc1
0: all assays above

(next part)

NC(=O)c1c[nH]c(C2CC2)n1
0: all assays above

CC1(C)CCCN1CCN
0: all assays above

Oc1cccc(CN2CCSCC2)c1
0: all assays above

Cc1nc(CN2CCC(CN)CC2)cs1
0: all assays above

Cc1ccc(S(=O)(=O)N(C)CCC#N)cc1
0: all assays above

CCOc1ccc(C(C)N)cc1.Cl (stereo not given)
0: all assays above

NNC(=O)c1ccc(OCc2ccccc2)cc1
0: all assays above

CC(C)C(=O)N1CCC(Cc2ccccc2)CC1
0: all assays above

CC1CCC(C(=O)N2CCC=C(F)C2)O1 (stereo not given)
0: all assays above

CC(=O)Nc1ccc(CC(N)=O)cc1
0: all assays above

Cc1ccc(OCC(=O)N2CCOCC2)c(C)c1
0: all assays above

O=C(NCc1nc2ccccc2[nH]1)c1ccco1
0: all assays above

Cn1c(CNC2CCCCC2)nc2ccccc21
0: all assays above

CCn1c(NC(C)=O)nc2ccccc21
0: all assays above

COC(=O)N1CCN(c2ccc(F)cc2)CC1
0: all assays above

COC(=O)C1CCN(C(=O)NC(C)(C)C)CC1
0: all assays above

CC(C)Nc1ncccn1
0: all assays above

NC(=O)c1ccc(NC(=O)C2CCCO2)cc1 (stereo not given)
0: all assays above

Cn1nccc1C(=O)NCc1cccs1
0: all assays above

COc1ccc(NC2=NCCN2)cc1
0: all assays above

Cc1nc(CN2CC(F)CC2CN)cs1 (stereo not given)
0: all assays above

Cc1nnc(NC(=O)N2CCOCC2)s1
0: all assays above
